Consider 36 targets from the supplement of paper PMC12819154, “High-throughput peptide-centric local stability assay extends protein–ligand identification to membrane proteins, tissues and bacteria” (Nature Structural & Molecular Biology, 2025).

The chains behind the UniProt entries cited, without tags or fusion partners. Where a name states a change or a piece, a line headed by the entry shows the natural chain unless it says otherwise.
UniProt Q9QWY8: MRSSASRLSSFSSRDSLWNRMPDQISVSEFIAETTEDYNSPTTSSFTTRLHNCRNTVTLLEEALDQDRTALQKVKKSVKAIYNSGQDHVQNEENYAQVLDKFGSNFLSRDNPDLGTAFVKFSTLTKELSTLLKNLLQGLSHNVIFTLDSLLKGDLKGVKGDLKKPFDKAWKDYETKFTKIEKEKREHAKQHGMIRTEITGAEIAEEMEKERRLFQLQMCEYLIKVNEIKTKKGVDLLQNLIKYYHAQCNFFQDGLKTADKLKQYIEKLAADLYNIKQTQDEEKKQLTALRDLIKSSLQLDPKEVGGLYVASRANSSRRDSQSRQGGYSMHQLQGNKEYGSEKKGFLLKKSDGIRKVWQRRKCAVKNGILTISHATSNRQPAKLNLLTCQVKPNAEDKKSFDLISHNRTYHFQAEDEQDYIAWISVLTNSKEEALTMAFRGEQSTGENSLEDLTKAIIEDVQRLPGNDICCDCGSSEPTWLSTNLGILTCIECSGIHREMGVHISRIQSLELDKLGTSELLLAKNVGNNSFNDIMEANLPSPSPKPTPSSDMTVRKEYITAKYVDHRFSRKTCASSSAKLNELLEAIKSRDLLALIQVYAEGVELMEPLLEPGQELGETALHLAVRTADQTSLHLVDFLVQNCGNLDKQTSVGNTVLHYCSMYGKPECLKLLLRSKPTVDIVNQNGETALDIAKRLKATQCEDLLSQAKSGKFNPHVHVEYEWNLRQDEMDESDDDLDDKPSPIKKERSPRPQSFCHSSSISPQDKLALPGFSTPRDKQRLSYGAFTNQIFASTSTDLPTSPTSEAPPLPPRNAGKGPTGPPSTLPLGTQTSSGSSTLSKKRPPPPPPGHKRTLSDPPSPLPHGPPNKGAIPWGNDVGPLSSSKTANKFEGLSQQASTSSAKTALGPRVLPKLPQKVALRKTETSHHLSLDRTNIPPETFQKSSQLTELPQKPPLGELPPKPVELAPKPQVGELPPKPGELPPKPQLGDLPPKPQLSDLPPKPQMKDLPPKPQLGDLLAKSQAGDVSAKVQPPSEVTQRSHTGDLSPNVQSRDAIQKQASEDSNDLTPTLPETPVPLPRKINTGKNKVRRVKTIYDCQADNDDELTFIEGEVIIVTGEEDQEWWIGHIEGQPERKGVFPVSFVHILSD
UniProt Q9JLH8: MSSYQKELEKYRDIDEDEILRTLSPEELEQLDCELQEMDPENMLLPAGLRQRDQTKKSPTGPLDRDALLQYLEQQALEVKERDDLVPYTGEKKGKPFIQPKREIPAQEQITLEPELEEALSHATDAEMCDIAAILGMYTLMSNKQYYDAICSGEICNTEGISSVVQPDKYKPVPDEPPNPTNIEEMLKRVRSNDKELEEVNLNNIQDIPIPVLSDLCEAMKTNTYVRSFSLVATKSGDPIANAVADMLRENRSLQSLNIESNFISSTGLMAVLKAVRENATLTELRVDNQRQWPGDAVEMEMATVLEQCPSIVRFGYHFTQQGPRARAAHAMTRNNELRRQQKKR
UniProt Q9DCZ1: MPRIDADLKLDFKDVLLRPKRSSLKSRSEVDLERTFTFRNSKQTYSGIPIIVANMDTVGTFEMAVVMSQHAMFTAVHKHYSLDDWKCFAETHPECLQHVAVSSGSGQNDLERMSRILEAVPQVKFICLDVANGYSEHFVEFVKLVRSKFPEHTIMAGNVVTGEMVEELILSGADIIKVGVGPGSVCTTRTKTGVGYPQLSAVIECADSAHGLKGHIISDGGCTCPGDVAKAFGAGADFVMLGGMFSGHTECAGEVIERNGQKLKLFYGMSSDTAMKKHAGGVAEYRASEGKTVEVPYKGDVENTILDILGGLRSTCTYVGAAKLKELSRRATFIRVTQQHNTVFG
UniProt Q9JKV1: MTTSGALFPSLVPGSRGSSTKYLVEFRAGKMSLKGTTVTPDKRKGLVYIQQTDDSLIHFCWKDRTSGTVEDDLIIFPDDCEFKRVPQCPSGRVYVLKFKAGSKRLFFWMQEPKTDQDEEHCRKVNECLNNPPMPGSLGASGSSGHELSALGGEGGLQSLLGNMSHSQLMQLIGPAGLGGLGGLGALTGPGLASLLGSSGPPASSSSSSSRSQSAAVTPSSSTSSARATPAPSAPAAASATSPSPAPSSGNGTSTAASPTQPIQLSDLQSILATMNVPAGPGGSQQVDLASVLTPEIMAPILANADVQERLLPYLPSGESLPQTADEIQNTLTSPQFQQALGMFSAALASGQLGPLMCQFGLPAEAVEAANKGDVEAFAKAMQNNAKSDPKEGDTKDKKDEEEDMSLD
UniProt Q9JME7, whole entry: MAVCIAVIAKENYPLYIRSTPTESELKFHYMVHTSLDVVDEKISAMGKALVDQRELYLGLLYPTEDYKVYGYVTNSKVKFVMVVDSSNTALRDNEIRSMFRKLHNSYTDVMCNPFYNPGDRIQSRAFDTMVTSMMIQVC
UniProt Q9JKD3: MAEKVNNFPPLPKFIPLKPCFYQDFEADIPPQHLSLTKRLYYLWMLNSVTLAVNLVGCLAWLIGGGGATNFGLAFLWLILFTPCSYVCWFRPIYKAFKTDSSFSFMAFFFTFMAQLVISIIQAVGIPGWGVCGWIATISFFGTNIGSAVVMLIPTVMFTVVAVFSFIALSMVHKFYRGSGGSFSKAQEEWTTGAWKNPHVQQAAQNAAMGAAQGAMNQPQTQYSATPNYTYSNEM
UniProt Q9JMG7: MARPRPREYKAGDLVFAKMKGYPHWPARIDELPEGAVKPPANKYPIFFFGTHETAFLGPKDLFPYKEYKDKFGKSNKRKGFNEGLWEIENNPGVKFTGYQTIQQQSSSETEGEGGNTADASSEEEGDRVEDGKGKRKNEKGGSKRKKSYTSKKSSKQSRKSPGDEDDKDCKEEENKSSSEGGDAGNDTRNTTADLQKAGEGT
UniProt Q9EP69: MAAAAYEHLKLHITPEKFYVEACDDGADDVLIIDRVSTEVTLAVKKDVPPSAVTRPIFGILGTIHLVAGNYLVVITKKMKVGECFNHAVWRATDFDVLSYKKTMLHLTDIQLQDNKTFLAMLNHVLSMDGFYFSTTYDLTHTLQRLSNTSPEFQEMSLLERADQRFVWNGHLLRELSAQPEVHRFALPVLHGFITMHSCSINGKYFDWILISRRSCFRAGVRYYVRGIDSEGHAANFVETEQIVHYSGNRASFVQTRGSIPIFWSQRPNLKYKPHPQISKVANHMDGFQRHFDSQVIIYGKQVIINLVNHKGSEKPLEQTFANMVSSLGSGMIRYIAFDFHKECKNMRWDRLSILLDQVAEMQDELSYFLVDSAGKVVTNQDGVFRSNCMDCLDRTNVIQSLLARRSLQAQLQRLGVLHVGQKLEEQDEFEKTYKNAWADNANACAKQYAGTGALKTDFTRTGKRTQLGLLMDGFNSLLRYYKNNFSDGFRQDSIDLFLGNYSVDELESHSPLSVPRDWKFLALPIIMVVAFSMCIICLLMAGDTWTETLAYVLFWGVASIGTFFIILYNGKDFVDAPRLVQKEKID
UniProt Q9EST3: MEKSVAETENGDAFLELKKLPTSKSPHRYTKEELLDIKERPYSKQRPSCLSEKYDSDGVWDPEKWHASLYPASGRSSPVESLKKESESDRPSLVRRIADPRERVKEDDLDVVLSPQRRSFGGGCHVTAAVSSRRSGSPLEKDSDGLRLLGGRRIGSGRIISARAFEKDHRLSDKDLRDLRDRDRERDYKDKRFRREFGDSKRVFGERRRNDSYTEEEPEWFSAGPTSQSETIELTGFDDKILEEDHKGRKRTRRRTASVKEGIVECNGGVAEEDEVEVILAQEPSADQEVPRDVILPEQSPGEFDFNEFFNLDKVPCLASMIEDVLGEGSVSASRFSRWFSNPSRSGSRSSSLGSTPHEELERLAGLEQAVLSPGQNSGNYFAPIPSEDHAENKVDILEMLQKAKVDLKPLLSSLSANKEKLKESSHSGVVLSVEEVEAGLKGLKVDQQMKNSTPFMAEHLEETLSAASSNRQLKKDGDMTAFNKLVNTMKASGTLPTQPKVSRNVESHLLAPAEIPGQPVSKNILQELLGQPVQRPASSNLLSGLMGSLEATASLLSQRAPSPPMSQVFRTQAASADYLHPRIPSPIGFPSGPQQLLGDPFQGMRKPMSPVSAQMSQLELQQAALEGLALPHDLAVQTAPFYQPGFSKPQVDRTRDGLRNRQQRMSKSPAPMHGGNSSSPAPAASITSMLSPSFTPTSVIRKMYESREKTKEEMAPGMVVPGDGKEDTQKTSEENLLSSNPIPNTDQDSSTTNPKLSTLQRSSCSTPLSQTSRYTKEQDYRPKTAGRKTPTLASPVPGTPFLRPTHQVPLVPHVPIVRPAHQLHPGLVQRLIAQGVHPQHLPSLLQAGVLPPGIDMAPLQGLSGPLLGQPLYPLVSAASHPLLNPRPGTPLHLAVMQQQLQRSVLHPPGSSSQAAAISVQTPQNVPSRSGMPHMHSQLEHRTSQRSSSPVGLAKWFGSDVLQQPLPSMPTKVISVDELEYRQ
UniProt Q9DD20: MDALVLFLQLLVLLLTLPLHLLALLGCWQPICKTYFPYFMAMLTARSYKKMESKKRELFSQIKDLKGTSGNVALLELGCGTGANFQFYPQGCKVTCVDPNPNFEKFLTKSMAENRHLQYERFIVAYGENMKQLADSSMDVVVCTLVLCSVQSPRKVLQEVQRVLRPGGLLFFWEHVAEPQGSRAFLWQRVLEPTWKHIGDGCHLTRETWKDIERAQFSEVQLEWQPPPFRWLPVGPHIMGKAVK
UniProt Q9DCG2: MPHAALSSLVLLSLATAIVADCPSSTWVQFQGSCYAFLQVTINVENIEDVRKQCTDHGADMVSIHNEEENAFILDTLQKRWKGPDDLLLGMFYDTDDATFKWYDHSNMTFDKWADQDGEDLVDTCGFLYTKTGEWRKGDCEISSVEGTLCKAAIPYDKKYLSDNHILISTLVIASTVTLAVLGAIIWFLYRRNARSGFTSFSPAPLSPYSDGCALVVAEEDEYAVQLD
UniProt Q9ESX5: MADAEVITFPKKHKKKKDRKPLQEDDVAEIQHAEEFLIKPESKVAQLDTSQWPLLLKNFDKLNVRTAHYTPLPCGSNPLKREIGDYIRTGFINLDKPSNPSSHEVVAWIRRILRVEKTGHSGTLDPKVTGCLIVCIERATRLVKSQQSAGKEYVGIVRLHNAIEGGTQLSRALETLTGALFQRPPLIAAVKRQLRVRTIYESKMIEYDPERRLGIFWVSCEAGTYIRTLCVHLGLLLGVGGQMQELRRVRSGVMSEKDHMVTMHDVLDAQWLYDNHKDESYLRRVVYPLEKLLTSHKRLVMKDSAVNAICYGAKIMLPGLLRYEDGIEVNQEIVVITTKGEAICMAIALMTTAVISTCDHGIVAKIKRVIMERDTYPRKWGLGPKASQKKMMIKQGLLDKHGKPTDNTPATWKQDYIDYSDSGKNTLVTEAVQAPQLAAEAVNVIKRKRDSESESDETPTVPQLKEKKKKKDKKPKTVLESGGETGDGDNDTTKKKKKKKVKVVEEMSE
UniProt Q9JIH2: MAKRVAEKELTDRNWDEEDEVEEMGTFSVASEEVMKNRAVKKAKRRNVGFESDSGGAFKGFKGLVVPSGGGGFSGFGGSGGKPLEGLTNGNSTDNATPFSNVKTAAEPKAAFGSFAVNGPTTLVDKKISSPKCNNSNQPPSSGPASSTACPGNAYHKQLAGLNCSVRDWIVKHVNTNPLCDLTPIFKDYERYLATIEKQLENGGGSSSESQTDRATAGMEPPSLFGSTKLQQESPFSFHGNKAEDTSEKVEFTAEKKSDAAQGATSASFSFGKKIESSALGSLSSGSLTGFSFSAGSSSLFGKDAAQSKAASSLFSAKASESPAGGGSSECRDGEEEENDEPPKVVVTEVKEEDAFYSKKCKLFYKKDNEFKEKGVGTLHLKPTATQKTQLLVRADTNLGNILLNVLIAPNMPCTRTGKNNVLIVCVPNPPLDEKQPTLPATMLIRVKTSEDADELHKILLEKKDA
UniProt Q9JHZ2: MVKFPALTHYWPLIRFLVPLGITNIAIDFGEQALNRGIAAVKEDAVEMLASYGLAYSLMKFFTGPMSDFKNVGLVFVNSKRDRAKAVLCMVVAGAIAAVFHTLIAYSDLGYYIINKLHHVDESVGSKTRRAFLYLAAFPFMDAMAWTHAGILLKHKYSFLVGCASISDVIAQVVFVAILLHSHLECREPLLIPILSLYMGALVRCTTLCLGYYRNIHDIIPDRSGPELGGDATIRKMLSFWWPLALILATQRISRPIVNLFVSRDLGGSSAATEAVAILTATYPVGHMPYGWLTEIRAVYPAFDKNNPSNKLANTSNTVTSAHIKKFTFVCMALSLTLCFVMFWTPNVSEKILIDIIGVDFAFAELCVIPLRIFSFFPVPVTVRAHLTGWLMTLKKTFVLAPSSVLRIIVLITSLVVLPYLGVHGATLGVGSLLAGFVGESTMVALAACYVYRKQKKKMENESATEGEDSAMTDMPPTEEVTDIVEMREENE
UniProt Q9QUM9: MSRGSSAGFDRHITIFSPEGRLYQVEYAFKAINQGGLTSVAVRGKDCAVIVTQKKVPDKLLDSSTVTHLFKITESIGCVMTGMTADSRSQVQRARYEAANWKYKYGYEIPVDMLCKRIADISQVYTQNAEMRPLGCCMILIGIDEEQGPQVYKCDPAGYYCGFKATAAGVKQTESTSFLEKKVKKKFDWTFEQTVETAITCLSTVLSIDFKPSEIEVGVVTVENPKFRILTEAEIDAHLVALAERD

This is one part of the list. Most values lie at the level of the controls, where differences are scatter.

Compound in the assay: CN[C@@H]1C[C@H]2O[C@@](C)([C@@H]1OC)n1c3ccccc3c3c4c(c5c6ccccc6n2c5c31)C(=O)NC4 [staurosporine]
Put plainly: log2 fold change of pooled soluble protein (PISA), ligand vs vehicle (log2 ratio); higher = more thermally stabilized. As to conditions: ligand concentration: 20 uM; assay format: PISA pool 52.9/55.5/58.6 C.
As to UniProt Q9QWY8, the “log2 fold change of pooled soluble protein” value (“log2 fold change” below) turned out to be 0.0992.
With UniProt Q9JJU8 the figure was 0.251; with UniProt Q9JI46, -0.0484.
As for UniProt Q9DCS2, the “log2 fold change” value was -0.143.
The figure for UniProt Q9JK48 is 0.2; for UniProt Q9JJG0 it is -0.156.
With UniProt Q9JI75, the “log2 fold change” value was -0.158.
The figure for UniProt Q9NYQ2 is -0.492; for UniProt Q9JLH8 it is 0.061.
In the case of UniProt Q9QYB1, the “log2 fold change” value was 0.0819.
UniProt Q9EQI8: the “log2 fold change” value came out at 0.136.
With UniProt Q9DCZ1 the figure was 0.11.
UniProt Q9JLT4: the “log2 fold change” value is -0.141.
For the target UniProt Q9ER00, the “log2 fold change” value is -0.0657.
With UniProt Q9JKV1, the “log2 fold change” value is 0.0776.
Turning to UniProt Q9JME7, the “log2 fold change” value is -0.0388.
For the target UniProt Q9JMG1, the “log2 fold change” value was -0.0757.
As to UniProt Q9JIK5, the “log2 fold change” value was -0.0148.
As for UniProt Q9ESW4, the “log2 fold change” value is -0.0732.
As to UniProt Q9JKD3, the “log2 fold change” value is -0.314.
UniProt Q9JMG7: the “log2 fold change” value worked out at 0.0239.
Turning to UniProt Q9JKF6, the “log2 fold change” value stood at 0.296.
UniProt Q9ESZ8: the “log2 fold change” value came to 0.0128.
The figure for UniProt Q9JKC6 is 0.0863; for UniProt Q9EP69 it is 0.107.
Consider UniProt Q9EST3, for which the “log2 fold change” value is 0.0336.
UniProt Q9DD20: the “log2 fold change” value was -0.0701.
Consider UniProt Q9DCG2, for which the “log2 fold change” value is 0.275.
Consider UniProt Q9ESX5, for which the “log2 fold change” value came out at 0.0684.
For UniProt Q9JIH2, the “log2 fold change” value is 0.149.
For UniProt Q9JI90, the “log2 fold change” value turned out to be 0.0268.
The figure for UniProt Q9QX15 is 0.208; for UniProt Q9JL15 it is -0.0337; for UniProt Q9JHZ2 it is -0.195.
Take UniProt Q9DCI3: the “log2 fold change” value was -0.122.
With UniProt Q9QUM9 the figure was -0.0292.
